Results on 1 substance are retold here after paper PMC12619835.

By UniProt entry, the sequences of proteins in these tests, tags left out.
UniProt Q13887: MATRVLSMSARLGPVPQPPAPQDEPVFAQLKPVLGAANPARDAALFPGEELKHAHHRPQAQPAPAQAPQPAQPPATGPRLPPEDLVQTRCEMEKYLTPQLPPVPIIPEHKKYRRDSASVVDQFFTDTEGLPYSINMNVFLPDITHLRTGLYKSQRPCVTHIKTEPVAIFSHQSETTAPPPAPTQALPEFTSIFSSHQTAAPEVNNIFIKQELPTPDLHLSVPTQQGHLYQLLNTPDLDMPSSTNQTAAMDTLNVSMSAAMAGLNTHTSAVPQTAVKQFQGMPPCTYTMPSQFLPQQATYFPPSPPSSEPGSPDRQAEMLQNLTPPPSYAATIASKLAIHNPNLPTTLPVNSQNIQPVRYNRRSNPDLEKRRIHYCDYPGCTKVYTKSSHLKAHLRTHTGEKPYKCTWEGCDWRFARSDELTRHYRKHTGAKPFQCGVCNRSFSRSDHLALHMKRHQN
UniProt Q09472: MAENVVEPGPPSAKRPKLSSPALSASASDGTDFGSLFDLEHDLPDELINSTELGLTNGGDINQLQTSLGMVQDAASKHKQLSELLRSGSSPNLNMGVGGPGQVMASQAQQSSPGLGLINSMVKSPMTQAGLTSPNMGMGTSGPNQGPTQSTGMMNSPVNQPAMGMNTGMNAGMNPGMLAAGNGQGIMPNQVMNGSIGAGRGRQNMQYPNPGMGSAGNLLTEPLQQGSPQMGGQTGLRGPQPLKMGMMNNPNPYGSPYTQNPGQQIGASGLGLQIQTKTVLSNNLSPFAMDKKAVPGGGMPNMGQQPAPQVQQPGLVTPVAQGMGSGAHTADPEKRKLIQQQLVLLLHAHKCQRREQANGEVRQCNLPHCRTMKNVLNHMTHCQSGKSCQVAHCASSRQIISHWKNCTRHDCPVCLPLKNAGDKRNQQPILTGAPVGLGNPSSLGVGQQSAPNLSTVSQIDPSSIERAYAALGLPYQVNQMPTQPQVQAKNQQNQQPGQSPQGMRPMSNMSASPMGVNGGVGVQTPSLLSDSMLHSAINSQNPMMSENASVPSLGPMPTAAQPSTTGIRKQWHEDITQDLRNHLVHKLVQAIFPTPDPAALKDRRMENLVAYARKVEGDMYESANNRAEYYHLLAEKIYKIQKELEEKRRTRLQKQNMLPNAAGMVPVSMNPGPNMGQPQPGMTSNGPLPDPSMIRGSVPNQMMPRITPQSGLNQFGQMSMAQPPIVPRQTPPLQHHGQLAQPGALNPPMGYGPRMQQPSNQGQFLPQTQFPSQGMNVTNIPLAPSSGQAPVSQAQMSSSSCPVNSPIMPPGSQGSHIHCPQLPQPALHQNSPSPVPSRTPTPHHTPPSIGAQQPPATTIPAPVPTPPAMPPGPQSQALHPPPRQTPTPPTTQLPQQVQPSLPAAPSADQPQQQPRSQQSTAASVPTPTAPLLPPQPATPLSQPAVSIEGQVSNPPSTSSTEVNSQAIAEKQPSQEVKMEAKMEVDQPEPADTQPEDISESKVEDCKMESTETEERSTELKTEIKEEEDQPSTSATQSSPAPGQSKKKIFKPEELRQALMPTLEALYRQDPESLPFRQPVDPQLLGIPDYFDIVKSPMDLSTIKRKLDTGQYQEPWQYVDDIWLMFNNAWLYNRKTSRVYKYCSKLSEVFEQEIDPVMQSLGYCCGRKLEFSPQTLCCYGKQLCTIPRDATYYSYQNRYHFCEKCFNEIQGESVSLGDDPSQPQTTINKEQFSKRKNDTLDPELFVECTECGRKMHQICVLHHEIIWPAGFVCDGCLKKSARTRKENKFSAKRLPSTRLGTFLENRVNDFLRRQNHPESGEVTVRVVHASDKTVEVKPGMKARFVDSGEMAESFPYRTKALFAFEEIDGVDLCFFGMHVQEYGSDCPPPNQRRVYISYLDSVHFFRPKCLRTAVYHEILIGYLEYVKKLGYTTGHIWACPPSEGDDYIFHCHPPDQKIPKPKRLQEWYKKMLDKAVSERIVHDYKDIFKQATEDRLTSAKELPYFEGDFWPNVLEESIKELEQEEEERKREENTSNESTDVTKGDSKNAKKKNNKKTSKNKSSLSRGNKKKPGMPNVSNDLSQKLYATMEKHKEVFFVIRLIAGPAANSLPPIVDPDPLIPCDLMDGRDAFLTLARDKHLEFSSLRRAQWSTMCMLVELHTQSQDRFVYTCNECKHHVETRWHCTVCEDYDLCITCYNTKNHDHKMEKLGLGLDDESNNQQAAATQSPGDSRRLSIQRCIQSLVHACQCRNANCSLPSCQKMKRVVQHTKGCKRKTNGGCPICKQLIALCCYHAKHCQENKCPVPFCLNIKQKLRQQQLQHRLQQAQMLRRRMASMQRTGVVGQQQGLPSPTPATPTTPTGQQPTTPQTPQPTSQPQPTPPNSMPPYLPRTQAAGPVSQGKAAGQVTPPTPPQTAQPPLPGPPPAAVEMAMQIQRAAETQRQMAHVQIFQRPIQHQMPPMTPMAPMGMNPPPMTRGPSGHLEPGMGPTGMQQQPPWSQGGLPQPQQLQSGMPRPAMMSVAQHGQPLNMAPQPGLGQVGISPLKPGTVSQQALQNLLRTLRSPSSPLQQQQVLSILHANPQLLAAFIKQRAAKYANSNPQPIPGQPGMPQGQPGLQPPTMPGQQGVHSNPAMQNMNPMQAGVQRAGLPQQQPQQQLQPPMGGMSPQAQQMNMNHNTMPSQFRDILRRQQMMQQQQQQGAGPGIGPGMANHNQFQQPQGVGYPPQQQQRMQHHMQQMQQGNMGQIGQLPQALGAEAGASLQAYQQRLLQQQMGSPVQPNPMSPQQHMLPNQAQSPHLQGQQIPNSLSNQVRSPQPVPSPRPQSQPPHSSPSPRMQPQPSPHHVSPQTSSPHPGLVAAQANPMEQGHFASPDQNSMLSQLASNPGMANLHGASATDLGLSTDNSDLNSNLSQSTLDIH

No constants are given. Whether binding was seen depends on the method and setting. In cells and extracts the contact can be indirect. A yes stands for co-enrichment or nearness to the bait. Other partners may have been found. A no says only that the protein was not detected with the bait.

The target of this test is recombinant MBP-tagged KLF5 (human) (UniProt Q13887). Briefly: affinity purification with mass spectrometry; purified MBP-KLF5 (MBP alone as control) held on magnetic protein G beads by an MBP antibody; Benzonase-treated, pre-cleared AsPC-1 nuclear extract, 1-2 h; washes with 120 mM NaCl; 4 °C; three replicates; only the target purified.

Take EP300 (from UniProt Q09472 1-2414): the binding result is recorded as “no binding”.
